# Source: patent US7019109B2, “SSTR1-selective analogs” (The Salk Institute for Bilogical Studies, priority 2001, dated 2006)
# Amino acid sequences for entries named in this document (tags omitted). A change or cut given only in a name is not applied to a line headed by its entry.
# UniProt P32745: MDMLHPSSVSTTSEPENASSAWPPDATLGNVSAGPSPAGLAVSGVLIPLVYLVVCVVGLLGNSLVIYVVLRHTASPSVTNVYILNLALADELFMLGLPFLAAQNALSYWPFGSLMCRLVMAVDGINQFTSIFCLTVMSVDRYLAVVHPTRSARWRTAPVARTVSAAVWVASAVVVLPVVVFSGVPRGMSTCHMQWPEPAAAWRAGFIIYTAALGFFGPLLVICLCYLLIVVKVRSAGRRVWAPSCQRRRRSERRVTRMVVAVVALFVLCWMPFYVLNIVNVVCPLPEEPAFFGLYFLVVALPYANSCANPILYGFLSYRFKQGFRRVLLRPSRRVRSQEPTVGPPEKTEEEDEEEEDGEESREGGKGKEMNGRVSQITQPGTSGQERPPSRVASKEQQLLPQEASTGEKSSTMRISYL
# Not every detail of the peptide structures is certain; ends, links or a residue may be inferred. Where a SMILES comes first, the peptide text is derived from it. Bridges are numbered along the chain shown (N, C = ends). [ ]: non-standard residue; d: D form. Phe(4-CH2NHiPr) = CC(C)NCc1ccc(C[C@H](N)C(=O)O)cc1; Tyr(3-I) = N[C@@H](Cc1ccc(O)c(I)c1)C(=O)O
# Biological target: T1, human SSTR3 (Homo sapiens, UniProt P32745)
# T1 construct: expressed in transfected cells; host or cells: CHO-K1 cells and CCL39 cells
# Assay: Displacement of 125I-[Leu8,D-Trp22,Tyr25]-SRIF-28 from cloned SSTR3 (receptor autoradiography)
# Type: binding
# Conditions: at concentrations of 100 nM
# Procedure: Generally, recombinant cells expressing the receptor are washed and homogenized to prepare a crude protein homogenate that is frozen, embedded and then cut in 10–20 μm thin sections, as known in this art. Candidate substances, such as potential SRIF agonists and antagonists, are incubated with the tissue sections, and the interaction between the candidate substance and the receptor polypeptide is monitored.
# Receptor binding assays are performed on cloned SRIF receptors as generally set forth in Reubi, J. C. et al., J. Clin. Endocrinol. […] Med. 2000, 27, 273–282.
# In vitro Bioassay: The various somatostatin analogs are tested in vitro for their ability to bind to isolated cloned receptors expressed on CHO-K1 cells and CCL39 cells. CHO-K1 cells are grown in Ham's F-12 medium, and CCL39 cells are grown in Dulbecco's modified Eagle's medium/Ham's F-12(1:1) mix, supplemented with 10% fetal bovine serum, 100 U/ml penicillin and 100 μg/ml streptomycin, in humidified air containing 5% CO2 at 37° C.
# Cells are washed and prepared to produce homogenates as described in detail in Reubi, J. C. et al, Eur. J. Nucl. […]
# Receptor autoradiography is performed on 20 μm thick cryostat sections of the membrane pellets, mounted on microscope slides, and then stored at −20° C. […] IC50 values are calculated after quantification of the data using a computer-assisted image processing system as known in this art.
smiles,measurement,value
CC(C)NCc1ccc(C[C@@H]2NC(=O)[C@@H](Cc3c[nH]c4ccccc34)NC(=O)[C@H](Cc3ccccc3)NC(=O)[C@H](Cc3ccccc3)NC(=O)[C@H](CCCCN)NC(=O)[C@@H](N)CSSC[C@@H](C(=O)O)NC(=O)[C@H](CO)NC(=O)[C@H]([C@@H](C)O)NC(=O)[C@H](Cc3ccc(O)c(I)c3)NC(=O)[C@H]([C@@H](C)O)NC2=O)cc1 [Peptide No. 2B] (H-CKFF[dW][Phe(4-CH2NHiPr)]T[Tyr(3-I)]TSC-OH; disulfide 1-11),effect on binding of the SRIF-28 radioligand to human SSTR3,even less effect
